Source: patent US5677322A, “Maillard reaction inhibitor” (Otsuka Pharmaceutical Co., Ltd., priority 1993, dated 1997)
At least one structure is not confirmed: it was looked up by name or label, or the drawing left a doubt.

Test system: Lysozyme
Experiment: Inhibition of Maillard reaction: suppression of lysozyme dimer formation (lysozyme + fructose, SDS-PAGE)
Assay type: biochemical
Details: inhibition ratio of test compound to aminoguanidine (positive control); lysozyme 10 mg/ml, fructose 100 mM, 0.2M sodium phosphate pH 7.4, 37° C., 3 days; dimer amount by SDS-PAGE
Protocol: Lysozyme and fructose were dissolved in a buffer solution of 0.2M sodium phosphate (pH 7.4) to respectively give concentrations of 10 mg/ml and 100 mM. After incubating at 37° C. for 3 days, a definite amount of the mixture was taken out and electrophoresed with the use of SDS-PAGE. After the completion of the electrophoresis, the gel was stained with 0.2% Coomassie Brilliant Blue R-250 and the amount of the dimer thus formed was determined.
Each of the test compounds was added before the initiation of the incubation and the effect of suppressing the formation of the dimer was examined at various concentrations, whereby the IC50 value was obtained. As a positive control, aminoguanidine, which is a known glycation inhibitor, was employed and the inhibition ratio of the test compound to aminoguanidine (IC50 of aminoguanidine/IC50 of test compound) was calculated.

| Structure (SMILES) | IC50 of aminoguanidine/IC50 of test compound |
| --- | --- |
| CC(C)=NN=C1SCC(=O)N1c1ccccc1 [Test compound 21, 2-Isopropylidenehydrazono-3-phenylthiazolidin-4-one] | 0.8 |
| CC(C)=NNc1nc(-c2ccc(Cl)cc2)cs1 [Test compound 24, 4-(4-Chlorophenyl)-2-isopropylidenehydrazinothiazole] | 2.8 |
| CC(C)=NNc1nc2c(s1)CCCC2 [Test compound 28, 2-isopropylidenehydrazino-4,5,6,7-tetrahydrobenzothiazole] | 4.4 |
| CCOC(=O)Cc1csc(NN=C(C)C)n1 [Test compound 87, 4-Ethoxycarbonylmethyl-2-isopropylidenehydrazinothiazole] | 3.3 |
